Data: the supplement of paper PMC5949888
Most values lie at the floor of the assay. Slopes are relative: functional sequences can read slightly below zero.

test system: Saccharomyces cerevisiae PS128 hsf1 delta, HSF1(1-493) fusion; experiment: growth estimate (transactivation domain function in HSF1 fusion, heat-shock survival) (a.u. (slope of normalised read count over time)); higher = stronger growth at 37°C, i.e. more transactivation activity; settings: library: random library
Procedure: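 Random 60-nt DNA library encoding peptides of up to 20 aa, fused to the C-terminus of yeast HSF1 residues 1-493 (C-terminal TAD deleted) and expressed from the native HSF1 promoter on a CEN plasmid in hsf1-deleted S. cerevisiae PS128. Cells were selected at 37°C on -trp 5-FOA plates for 0, 2, 4, 6 and 8 days and amplicons were sequenced. Growth estimate is the slope of a robust linear fit of total-sum-normalised read counts (normalised to the first time point) over time, using at least 2 replicates. Sequences are classed functional (TAD activity) above a threshold of -0.13, set from stop-codon control sequences.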

Row | Substance | growth estimate
1 | GGSAGLVNDGRCGSDVHCRS | < -0.25
2 | RRALIY | < -0.25
3 | CYVGRITHAFSLRWVARGAG | < -0.25
4 | STAYI | < -0.25
5 | SVCFPGACLHRVR | < -0.25
6 | GPSGRFSSGWVCNRV | < -0.25
7 | CQRGLSPCFYLLDISKGQYC | < -0.25
8 | NVVEFSVYGYSTSFMSSRGY | < -0.25
9 | SERIY | < -0.25
10 | TLG | < -0.25
11 | VSLRGEDRAEGVPPQ | < -0.25
12 | WAPVALAKGIHQLGAKATAS | < -0.25
13 | SIPSGVTPE | < -0.25
14 | HIGVVRIVGTDPVGEQCT | < -0.25
15 | VPSASLGQRHAGSRVDIWVS | < -0.25
16 | RLL | < -0.25
17 | YEHKYWRDYC | < -0.25
18 | SRGHFAEPSRGAPTGLCLSS | < -0.25
19 | DLVARHAMSLFAESLRRPTT | < -0.25
20 | CCLGLNFRQWNVGCFQDIFV | < -0.25
21 | KELVVSFASAPSKGGRRAQA | < -0.25
22 | GNYKQYALPVK | < -0.25
23 | LVSLRGRHSR | < -0.25
24 | NFSVQECMGVL | < -0.25
25 | QAASVQTASSHKQGTITRCI | < -0.25
26 | AVVARGKNTEMEGGYLVDHL | < -0.25

Row | Substance | growth estimate
27 | GSVRLRYTLMERSVLKGLGG | < -0.25
28 | AMNRLQGLVWCPLSVSSHNK | < -0.25
29 | DYGARNHSDVTISA | < -0.25
30 | DYSISSATPLPKRSGSVAER | < -0.25
31 | GVSGLLIFGVSRFGPLLGVA | < -0.25
32 | DRPGTHLHEGWCDRPQNVWG | < -0.25
33 | KPLFINYG | < -0.25
34 | TSCHFFIVPFLMGRETRRSI | < -0.25
35 | RSLHGHEARSHKRGRTHEAI | < -0.25
36 | GFWESRITRARARGR | < -0.25
37 | FVRFFCSQSRETAVND | < -0.25
38 | TRINIASLRSHWCPH | < -0.25
39 | TASHFET | < -0.25
40 | EQLFCYAMLEVQASTRRDKS | < -0.25
41 | SGLRLL | < -0.25
42 | GDSRYSRK | < -0.25
43 | SMGRRADENQAASRR | < -0.25
44 | LAHIHMGSPSCRGQGGSNVE | < -0.25
45 | GRPACGR | < -0.25
46 | RTKFI | < -0.25
47 | SLCLSLLVVPECLCR | < -0.25
48 | DVYS | < -0.25
49 | IFSWDCTKNQQLIFGA | < -0.25
50 | MGDLATGLARKN | < -0.25
51 | KVSTH | < -0.25
52 | CVRSSMDLLVTLI | < -0.25

Exported as labelled records: entries from further up.
GVSGLLIFGVSRFGPLLGVA
  growth estimate = < -0.25
DRPGTHLHEGWCDRPQNVWG
  growth estimate = < -0.25
KPLFINYG
  growth estimate = < -0.25
TSCHFFIVPFLMGRETRRSI
  growth estimate = < -0.25

Part of the list above, as a markdown table.

| Row | Substance | growth estimate |
| --- | --- | --- |
| 30 | DYSISSATPLPKRSGSVAER | < -0.25 |
| 31 | GVSGLLIFGVSRFGPLLGVA | < -0.25 |
| 32 | DRPGTHLHEGWCDRPQNVWG | < -0.25 |
| 33 | KPLFINYG | < -0.25 |
| 34 | TSCHFFIVPFLMGRETRRSI | < -0.25 |

(list continues)

Row | Substance | growth estimate
53 | ISTGRRSAPAAG | < -0.25
54 | EIH | -0.25
55 | TNVRRLDACPGLNIN | < -0.25
56 | TVG | < -0.25
57 | CVRGGGTLSFCAPHETGLSP | < -0.25
58 | IRSSLHRRA | < -0.25
59 | DAEMGRLSAGVCWFCRLRWV | < -0.25
60 | YGVIIRRWELITCKFVSSRG | < -0.25
61 | VTRRRREGSRFGTRDSRIWS | < -0.25
62 | WPGD | < -0.25
63 | GVSDAGALALHALLVEPPAV | < -0.25
64 | PASKSRA | < -0.25
65 | TRDDLP | < -0.25
66 | QTSAWFTGLEGQEHEMEGFA | 0.461
67 | NSKGQSQACRFCGAHNTT | -0.243
68 | VSVQGNVTVTIFVATGVYGQ | < -0.25
69 | VLTRNDNLLVYGVPHLC | < -0.25
70 | SGDLRSNV | < -0.25
71 | RESCQKDWHLRVRENLAFAV | < -0.25
72 | SYLAALESGN | < -0.25
73 | DDDETCRDPRRATWMIDDID | -0.158
74 | EGIRW | < -0.25
75 | VRV | < -0.25
76 | DGLVTNLPPSHDAFHASTSY | < -0.25
77 | ESTFLRIEASAQDVSGSYQQ | < -0.25
78 | RSVRFGNSDCS | -0.246

Row | Substance | growth estimate
79 | TERSNRRHPPVEEGGLILVV | < -0.25
80 | YGYGV | < -0.25
81 | GPDLLPTRF | < -0.25
82 | LLTL | < -0.25
83 | QYPDDRNGVM | < -0.25
84 | RPYYSRIAVVHVRSGVRPGP | < -0.25
85 | SRTG | < -0.25
86 | KRGSWNAPVHYGRRGLVQSK | < -0.25
87 | CTLVAMVIRRVKQHIDRGVS | < -0.25
88 | AIP | < -0.25
89 | GKGWFGSFRRA | < -0.25
90 | VIVGRCEMTRSCNTGEVKRT | < -0.25
91 | CHLSFRVMYQRIFVPSRRCF | < -0.25
92 | SLT | < -0.25
93 | TTGI | < -0.25
94 | TSQKISDGTRLRSQNIRTPF | < -0.25
95 | PELEAPKYECPRTDNVVVDS | < -0.25
96 | NISHFTMRSLDCGPSDKS | < -0.25
97 | GPTKSSPFAAYRLV | -0.238
98 | SSSVFKRGGVSCGKS | < -0.25
99 | GFSPPEQTVRRPPCRLSLGD | < -0.25
100 | VPKPR | < -0.25
101 | EFDGY | < -0.25
102 | RQNWFSVRLEDTLQPLGQG | < -0.25
103 | PTSRIYSREARPWGYIPQVI | < -0.25
104 | QPALPVKSLLISHGPC | < -0.25

Row | Substance | growth estimate
105 | AGCFSTVDQ | < -0.25
106 | ANNRGHQKRLGVRPSC | < -0.25
107 | SRQRYWHIGRWYSKMASLVQ | < -0.25
108 | TEYGPLSSSANKQLPRTPRK | < -0.25
109 | IVKKYPEGRLHVLLIPGVTM | < -0.25
110 | AHGSLPPAFSTGNFRCHGRI | < -0.25
111 | RSGPSLCLDSDTLLIKRAAM | < -0.25
112 | DACPNACFS | < -0.25
113 | CFA | < -0.25
114 | PCQIDLYREPR | -0.246
115 | TEGEMVSNVNGISLT | < -0.25
116 | ALPQIGQGPLTAARLKVMEE | < -0.25
117 | NLSCADVICLKFESPAPLFL | < -0.25
118 | KTRDLTVRQLERGCPPHVIP | < -0.25
119 | PGDGMGLAHSV | < -0.25
120 | TRQP | < -0.25
121 | ICGSSYK | < -0.25
122 | ISTMI | < -0.25
123 | QWTLGDARY | < -0.25
124 | SVGPFTGDFVIPMNNQQYYV | < -0.25
125 | GLGAAGPQFTRNCRKYPFRP | < -0.25
126 | TGYAGVAAI | < -0.25
127 | TIAAAVRRTGFVGTLWPRNR | < -0.25
128 | ISTSVRSYRNGHVPRSPIR | < -0.25
129 | PIQETLG | -0.245
130 | GLRLIEHHHVLGQRAACP | < -0.25

Row | Substance | growth estimate
131 | SYLRPT | < -0.25
132 | GVKELWSSYQCRHRIPISYC | < -0.25
133 | GSEAAAWLAIICRNEFLRAV | < -0.25
134 | KCKVPPEPSNEIFHALRSRQ | < -0.25
135 | GNFAVPQQCLAMGNGLVLQT | < -0.25
136 | WYAVVRYPAQFERN | < -0.25
137 | SRAFALLFLARILGMVTPNE | < -0.25
138 | THCFVWGHAKLRPILGRPHS | < -0.25
139 | FFQMLGVRLCTPQLQVRRFL | -0.246
140 | MKVSKSVILADAYRLRKTLY | < -0.25
141 | SILYSCGDPQELCSSSVWWA | -0.174
142 | GPNLLSRFAPGRRSP | < -0.25
143 | TDEISSQNQLMRRS | < -0.25
144 | NVFASWQLDMLPARSDLYGA | < -0.25
145 | YEGNFIGVIDDLGS | < -0.25
146 | RCRPLIHGPKGTSLCRT | < -0.25
147 | DLPCSVSCWLDRV | < -0.25
148 | SMLDMNMPQSWGRPIPLGRW | < -0.25
149 | QKALIRLAVP | < -0.25
150 | VMRARVEFRRGVNLRVLLRV | < -0.25
151 | VYSHRTIRVPAE | < -0.25
152 | CQDVERVARPGNRHYWAWLA | < -0.25
